Experimental data: PubChem BioAssay AID504793 (Drosophila RNAi Screening Center, 2011)
The deposit covers about 23,000 reagents; below is a random part of those with a known target gene and a result. Over the whole deposit, 62 (0.27%) were called active. 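Calls come from follow-up tests whose scores are not deposited, so confirmed genes may have low counts here; counts are not normalised per plate.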 Raw values are not corrected between plates. Reagents against one gene are numbered here. A plus sign joins genes that one reagent is predicted to hit.

Purpose: 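Whole-genome screen for parts of the DNA damage checkpoint at G2/M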 (primary screen)
Cells: Drosophila S2R+ cells
Reagent: long dsRNA against Drosophila genes, about 0.25 µg dsRNA per well
Duration: 4 days of dsRNA, then 4 hours of drug before read-out
Conditions: doxorubicin 0.5 µM for 4 hours to cause double-strand breaks, in cells also given a low, harmless dose of dsRNA against nbs to sensitise the assay
Read-out: 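Per-well count of mitotic cells stained for phospho-histone H3 after doxorubicin exposure, used as mitotic index; counts are raw and not normalised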
Reading the numbers: mitotic cells: higher = more cells in mitosis, weaker G2 arrest
Hit rule: 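a call needs confirmation in secondary tests, with other dsRNAs and a check of mitotic timing without damage, not just a high primary count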
Calls: active = confirmed in follow-up tests; inactive = not confirmed

target gene	reagent no.	mitotic cells, replicate 1	activity call
RNaseZ (Ribonuclease Z)	1	6	inactive
Nepl4 (Neprilysin-like 4)	1	4	inactive
Caf1-105 (Chromatin assembly factor 1, p105 subunit)	1	7	inactive
Fbxl7 (F-box and leucine-rich repeat protein 7)	1	4	inactive
Fbxl7 (F-box and leucine-rich repeat protein 7)	2	7	inactive
CG17163	1	9	inactive
CG4712	1	4	inactive
veg (retired record)	1	3	inactive
CG9706	1	5	inactive
CG12541	1	16	inactive
CG12541	2	3	inactive
ATPsynB (ATP synthase, subunit B)	1	3	inactive
Efr (ER GDP-fucose transporter)	1	5	inactive
Efr (ER GDP-fucose transporter)	2	3	inactive
AnxB11 (Annexin B11)	1	6	inactive
AnxB11 (Annexin B11)	2	12	inactive
CG14540	1	9	inactive
CG14540	2	5	inactive
scro (scarecrow)	1	11	inactive
CG17107	1	8	inactive
CG17107	2	10	inactive
CG17107	3	5	inactive
Glys (Glycogen synthase)	1	3	inactive
CG5644	1	6	inactive
ninaB (neither inactivation nor afterpotential B)	1	5	inactive
ninaB (neither inactivation nor afterpotential B)	2	3	inactive
RpS8 (Ribosomal protein S8)	1	9	inactive
CG14075	1	7	inactive
inaE (inactivation no afterpotential E)	1	19	inactive
inaE (inactivation no afterpotential E)	2	7	inactive
inaE (inactivation no afterpotential E)	3	20	inactive
inaE (inactivation no afterpotential E)	4	5	inactive
CG11588	1	18	inactive
CG11588	2	6	inactive
CG3306	1	8	inactive
Grd (Glycine receptor)	1	7	inactive
Grd (Glycine receptor)	2	4	inactive
nrv2 (nervana 2)	1	5	inactive
nrv2 (nervana 2)	2	8	inactive
CG11597	1	6	inactive
CG4783	1	8	inactive
CG1640	1	3	inactive
Gr97a (Gustatory receptor 97a)	1	15	inactive
Mrtf (Myocardin-related transcription factor)	1	4	inactive
Mrtf (Myocardin-related transcription factor)	2	21	inactive
Mrtf (Myocardin-related transcription factor)	3	10	inactive
CG4806	1	4	inactive
CG7304	1	8	inactive
CG7304	2	7	inactive
Hers + amn	1	5	inactive
kz (kurz)	1		inactive
CG31533	1	5	inactive
ND-B17.2 (NADH dehydrogenase (ubiquinone) B17.2 subunit)	1	7	inactive
ND-B17.2 (NADH dehydrogenase (ubiquinone) B17.2 subunit)	2	3	inactive
beat-Vb (beaten path Vb)	1	9	inactive
beat-Vb (beaten path Vb)	2	9	inactive
beat-Vb (beaten path Vb)	3	7	inactive
GLaz (Glial Lazarillo)	1	12	inactive
CG7785	1	11	inactive
E(spl)m7-HLH (Enhancer of split m7, helix-loop-helix)	1	6	inactive
E(spl)m7-HLH (Enhancer of split m7, helix-loop-helix)	2	9	inactive
Cad89D (Cadherin 89D)	1	5	inactive
sgg (shaggy)	1	5	inactive
sgg (shaggy)	2	9	inactive
sgg (shaggy)	3	10	inactive
sgg (shaggy)	4	22	inactive
shot (short stop)	1	7	inactive
shot (short stop)	2	3	inactive
shot (short stop)	3	4	inactive
shot (short stop)	4	8	inactive
alphaTry (alphaTrypsin)	1	4	inactive
Vta1 (Vesicle trafficking 1)	1	15	inactive
Vta1 (Vesicle trafficking 1)	2	7	inactive
CG12496	1	8	inactive
CG12496	2	5	inactive
p53	1	10	inactive
CG31974	1	9	inactive
PPP1R15 (Protein phosphatase 1 regulatory subunit 15)	1	15	inactive
PPP1R15 (Protein phosphatase 1 regulatory subunit 15)	2	1	inactive
CG15225	1	13	inactive
CG15225	2	4	inactive
CG9213	1	11	inactive
CG9213	2	3	inactive
daw (dawdle)	1	8	inactive
daw (dawdle)	2	2	inactive
CG2865	1	8	inactive
CG2865	2	12	inactive
CG2865	3	8	inactive
CG17959	1	8	inactive
CG17959	2	8	inactive
Cp38 (Chorion protein 38)	1	5	inactive
CG7362	1	10	inactive
CG7362	2	6	inactive
CG5913	1	3	inactive
haf (hattifattener)	1	3	inactive
ex (expanded)	1	2	inactive
ex (expanded)	2	4	inactive
Wdr81 (WD repeat domain 81)	1	7	inactive
Wdr81 (WD repeat domain 81)	2	7	inactive
rau	1	4	inactive
rau	2	7	inactive
Dso1 (Daisho1)	1	12	inactive
Dso1 (Daisho1)	2	3	inactive
csul (capsuleen)	1	7	inactive
CG14418	1	15	inactive
tau	1	7	inactive
CG8249	1	5	inactive
CG4080	1	7	inactive
GstD1 (Glutathione S transferase D1)	1	8	inactive
GstD1 (Glutathione S transferase D1)	2	5	inactive

10 consecutive entries already listed:
target gene	reagent no.	mitotic cells, replicate 1	activity call
nrv2 (nervana 2)	1	5	inactive
nrv2 (nervana 2)	2	8	inactive
CG11597	1	6	inactive
CG4783	1	8	inactive
CG1640	1	3	inactive
Gr97a (Gustatory receptor 97a)	1	15	inactive
Mrtf (Myocardin-related transcription factor)	1	4	inactive
Mrtf (Myocardin-related transcription factor)	2	21	inactive
Mrtf (Myocardin-related transcription factor)	3	10	inactive
CG4806	1	4	inactive
